Measured values: publication PMC7303359
For at least one entry, the source does not settle the construct or the ends of the probe. Whether high values mean tight binding is not given here for every scale.

Biological target: T1, TraJR1 (Escherichia coli plasmid R1) (UniProt P05837)
T1 sequence (looked up, limits assumed): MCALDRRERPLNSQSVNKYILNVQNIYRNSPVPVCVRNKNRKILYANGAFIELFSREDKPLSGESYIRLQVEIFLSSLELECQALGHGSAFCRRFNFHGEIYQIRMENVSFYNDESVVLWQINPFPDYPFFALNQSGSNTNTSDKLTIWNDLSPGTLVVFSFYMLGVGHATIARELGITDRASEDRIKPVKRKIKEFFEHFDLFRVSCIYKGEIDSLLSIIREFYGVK
Assay: EMSA
Conditions: 500 nM TraJR1; EMSA: 0.5 nM DNA, 12 mM HEPES pH 7.9, 30 mM Tris-Cl pH 7.5, 60 mM KCl, 10% glycerol, 1.7 mM EDTA, 26 mM boric acid, 5 mM TCEP, 30 C 15 min; recombinant protein; label: 5'-Cy5; probe letters rebuilt from the primers and the genome

Sequence “TAACACCTCCCGCTGTTTATCTTCTGGTTACCACTTATGTTTGCAGAATAATCAGAAAAGGTAAATAGACGGAAAGTCTATATTTTATTAACACCTTATTAACGCGTATTTATGATACACATAGCCTTCTCGTATAAATAATAAATAAACTTTTTATTGTAGAGTAAGATAATTAACTCATCTTTATTAGAAACAGAGAAGTAGTCGCATATCAGAGATGCGTGTTTCTTTGATGTGGAGATGGATATATTTAATATTCTTGCTATAGCATTATGACTGATTCCGGTGCTATATAAGTAAAAGACATCATTTACATATGATGATACAGAAGAATCATCACTCATTCTTCTGATTATATTTCTGATATCATCACTGACAATCGTTTTTTGATTATAACTGTCTTTATGACGAACATGAGCAGC (double strand) [FPY]” has a binding signal of 34 % free DNA.
